In patent US11999806B2, “Broad-spectrum polypeptide against enterovirus and application thereof” (WUHAN INSTITUTE OF VIROLOGY, CHINESE ACADEMY OF SCIENCES, priority 2018, dated 2024):
Where “and” joins values, the source holds several entries; their conditions need not be identical. Equal values may be shown once. Read-outs that look alike come from different tables or passages of the source. Not every detail of the peptide structures is certain; ends, links or a residue may be inferred.

Test system: CVA16
Type: cell-based, Coxsackievirus A16
Conditions: CCK-8; for Virus inhibition rate (%): CVA16, RD cells, 24 h

N=C(N)NCCC[C@H](NC(=O)[C@H](CCCNC(=N)N)NC(=O)[C@H](CCCNC(=N)N)NC(=O)[C@H](CCCNC(=N)N)NC(=O)[C@H](CCCNC(=N)N)NC(=O)[C@H](CCCNC(=N)N)NC(=O)[C@H](CCCNC(=N)N)NC(=O)[C@@H](N)CCCNC(=N)N)C(=O)O [R8, reference compound]
Virus inhibition rate (%) (1.25 μM): 5.612% and −0.8912% and 5.479% | Virus inhibition rate (%) (2.5 μM): 4.949% and −1.941% and 3.501% | Virus inhibition rate (%) (5 μM): −1.655% and 0.8275% and 7.733% | effect on CVA16, in words (RD cells): have no effect on the virus
